Assay results: doi:10.1101/2024.12.02.626298
Results are given in words; binding and its absence hold for the method and conditions named. In cells and extracts the contact can be indirect. Some binding calls cover weakened binding; strength is not graded here. Tags and fused reporters may be left off the sequences shown.

Target: T1, CarD-FLAG (M. smegmatis) (UniProt A0R561)
T1 sequence: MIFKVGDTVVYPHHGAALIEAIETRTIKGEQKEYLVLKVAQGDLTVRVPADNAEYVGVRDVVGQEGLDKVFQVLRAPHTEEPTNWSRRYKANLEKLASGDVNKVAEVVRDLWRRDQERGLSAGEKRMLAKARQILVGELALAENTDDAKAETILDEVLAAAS
Test: co-IP

B1: RbpA (protein, UniProt A0QZ11 1-114)
chain: MADRVLRGSRLGAVSYETDRNHDLAPRQVARYRTDNGEEFDVPFADDAEIPGTWLCRNGLEGTLIEGDVPEPKKVKPPRTHWDMLLERRSVEELEELLKERLDLIKAKRRGTGS
binding: binds
